PubChem BioAssay AID686937, Drosophila RNAi Screening Center, 2013
The screen tested about 23,000 reagents; below is a random part of those with a known target gene and a result. 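Reduced-secretion tags in replicate 1 do not always agree with the z-scores; no criterion for assigning the tags was given.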 Not stated in the record: the amount of reagent.

Screen: 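Genes in the fly needed for secretion of protein constitutively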 (primary screen)
Cell system: Drosophila S2 cells expressing secreted horseradish peroxidase
Knock-down reagent: long dsRNA against Drosophila genes
Timing: about 5.5 days (5 days dsRNA, then 12 h reporter induction)
Conditions: reporter expression induced after 5 days of dsRNA, read 12 h later; inducer not stated
Read-out: 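After 5 days of dsRNA and 12 h of reporter induction, medium peroxidase read by chemiluminescence and scored as per-plate z-score; higher values mean more reporter released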
Scale: z-score: higher = more reporter secreted into medium

| gene knocked down | amplicon | z-score, replicate 1 | z-score, replicate 2 | z-score, replicate 3 | z-score, replicate 4 |
| --- | --- | --- | --- | --- | --- |
| BomBc3 (Bomanin Bicipital 3) | DRSC15873 | 0.23 | 0.53 | – | – |
| CG3919 | DRSC10389 | 0.44 | 0.48 | – | – |
| Polr3D (RNA polymerase III subunit D) | DRSC10485 | -0.28 | -1.37 | – | – |
| lectin-33A | DRSC02529 | 0.14 | 0.28 | – | – |
| lectin-33A | DRSC22116 | -1.26 | 0.28 | – | – |
| CG7025 | DRSC03002 | 0.29 | 0.04 | – | – |
| CG1620 | DRSC06603 | 0.23 | 0.06 | – | – |
| Dif (Dorsal-related immunity factor) | DRSC03316 | -0.09 | 0.17 | – | – |
| Cog6 (Component of oligomeric golgi complex 6) | DRSC06806 | 0.32 | 0.23 | – | – |
| CG30428 | DRSC04041 | 0.03 | – | – | – |
| igl (igloo) | DRSC07631 | 0.24 | 0.27 | – | – |
| PCNA2 (Proliferating cell nuclear antigen 2) | DRSC02030 | 0.04 | 0.3 | – | – |
| Dbct (Dihydrolipoamide branched chain transacylase E2) | DRSC19951 | 0.18 | 0.4 | – | – |
| boi | DRSC18425 | 0.18 | 0.34 | – | – |
| boi | DRSC18598 | 0.24 | 0.09 | – | – |
| CG11703 | DRSC14356 | 0.24 | 0.25 | – | – |
| mkg-p (monkey king protein) | DRSC10777 | -0.53 | -0.04 | – | – |
| CG7362 | DRSC16236 | 0.12 | 0.6 | 0.69 | 1.04 |
| CG6052 | DRSC10574 | 0 | 0.01 | – | – |
| Sry-delta (Serendipity delta) | DRSC16869 | 0.11 | 0.32 | – | – |
| Gas41 | DRSC03156 | -0.09 | -0.2 | – | – |
| CG12206 | DRSC17828 | -0.04 | -0.66 | – | – |
| CG15155 | DRSC02456 | 0.33 | 0.02 | – | – |
| Gr28a (Gustatory receptor 28a) | DRSC02290 | 0.05 | 0.08 | – | – |
| CG42471 | DRSC01210 | 0.41 | 0.25 | – | – |
| Diedel3 (Diedel 3) | DRSC19544 | -0.19 | 0.08 | – | – |
| CG14621 | DRSC20635 | 0.1 | 0.07 | – | – |
| Toll-7 | DRSC07563 | 0.1 | 0.15 | 0.11 | 0.31 |
| Snx27 (Sorting nexin 27) | DRSC17786 | 0.36 | 0.64 | – | – |
| Snx27 (Sorting nexin 27) | DRSC18282 | 0.22 | 0.16 | – | – |
| Snx27 (Sorting nexin 27) | DRSC18284 | 0.27 | 0.54 | – | – |
| CG13615 | DRSC14618 | 0.22 | 0.13 | – | – |
| CG16904 | DRSC15161 | 0.35 | 0.49 | – | – |
